# Results reported in PubChem BioAssay AID2551 (National Center for Advancing Translational Sciences (NCATS), 2010).
# Chains of the proteins cited; added tags and fusions are not shown. Lines headed by an entry give the natural chain unless they say otherwise; changes in a name come on top.
# UniProt P51450: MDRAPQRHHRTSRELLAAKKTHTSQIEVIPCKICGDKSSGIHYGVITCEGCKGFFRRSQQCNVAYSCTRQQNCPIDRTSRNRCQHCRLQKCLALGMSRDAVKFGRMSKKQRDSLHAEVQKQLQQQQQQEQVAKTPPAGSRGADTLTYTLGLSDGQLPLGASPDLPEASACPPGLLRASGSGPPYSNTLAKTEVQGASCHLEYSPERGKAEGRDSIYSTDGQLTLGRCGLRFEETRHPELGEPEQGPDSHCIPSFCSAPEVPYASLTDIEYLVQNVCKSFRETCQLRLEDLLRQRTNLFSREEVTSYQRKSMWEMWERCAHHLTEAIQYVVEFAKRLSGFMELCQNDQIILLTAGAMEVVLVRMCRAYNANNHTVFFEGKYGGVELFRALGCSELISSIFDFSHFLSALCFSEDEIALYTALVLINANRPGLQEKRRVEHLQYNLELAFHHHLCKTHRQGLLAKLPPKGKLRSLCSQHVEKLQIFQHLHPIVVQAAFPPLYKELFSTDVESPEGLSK
# In all, about 310,000 compounds went through this assay and about 17,000 (5.5%) were called active. This list was built around the results that the source calls inconclusive (neither active nor inactive); the mix of calls is not that of the screen. The call rests on the fitted dose curve; in most records, active means well fitted inhibition curve with a large enough effect; inconclusive means small, poorly fitted or top-dose-only effect, or effect the other way; inactive means no such curve, though single readings can be large or run the other way. Potencies beside an inconclusive call are fits to weak or partial responses and may not hold up.
# Molecular target: Nuclear receptor ROR-gamma (Mus musculus) (UniProt P51450)
# Assay: qHTS for inhibitors of ROR gamma transcriptional activity; further: nearly all actives have a fitted effect of over 60% in size
# Conditions: Drosophila S2 Gal4-RORgamma UAS-luciferase reporter, 20 h; series mostly up to 53.6 µM
# Method in brief: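 In this cell-based reporter format, copper sulfate (700 uM final) drives Gal4–ROR gamma fusion expression from a metallothionein promoter in Drosophila Schneider cells; compounds preincubated 1 hr, reporter read after 20 hr at ambient temperature.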
# Potency means the concentration at half of the fitted maximal effect.
row,SMILES,Potency
1,O=C(NCC1CCCO1)c1cccc(F)c1 (stereo unspecified),inactive
2,CCc1cc(C)cc(OCCNC(=O)c2cncc(Br)c2)c1,"inconclusive: 25.1 µM [activator, single point]"
3,CC(OC(=O)CCCSc1nc2ccccc2s1)C(=O)NC(N)=O (stereo unspecified),active: 4.47 µM
4,Cc1cc(C(=O)NCCc2ccc(Cl)cc2)c(C)o1,inactive
5,C[C@@]12C(=O)N(CC3CC3)CC(=O)N1[C@H](C1CC1)[C@@H]1C(=O)N(c3ccccc3)C(=O)[C@@H]12,inactive
6,Cc1ccc(Nc2nc(N)nc(CSc3ncccn3)n2)cc1,"inconclusive: 0.355 µM [activator, full curve, poor fit]"
7,CC(C)Cn1c(=O)c(CCC(=O)Nc2ccc(N3CCOCC3)cc2)nc2cc(Cl)ccc21,inactive
8,CCCCCOc1ccc(Cn2ccnc2)cc1[N+](=O)[O-],"inconclusive: 6.31 µM [activator, full curve]"
9,COC(=O)c1n[nH]c2ccccc12,inactive
10,COc1cc(NC(=O)c2cc(-c3cccnc3)nc3ccc(Br)cc23)cc(OC)c1,"inconclusive: 35.5 µM [inhibitor, single point]"
11,Fc1ccc2c(Cl)c(-c3nnc(-c4cccs4)o3)sc2c1,"inconclusive: 12.6 µM [activator, partial curve]"
12,O=C1c2ccccc2C(=O)c2[nH]cnc21,active: 11.2 µM
13,CC(C)C[C@@H](CSc1ccc(Br)cc1)N1CCN(CC(C)C)CCC1=O,"inconclusive: 35.5 µM [activator, single point]"
14,Cc1ccc(N=C/C(C(=O)C(F)(F)F)=C(\O)c2ccco2)cc1Cl,"inconclusive: 2 µM [activator, partial curve, poor fit]"
15,O=C(O)CN1C(=O)/C(=C\C(Br)=C\c2ccccc2)SC1=S,"inconclusive: 17.8 µM [inhibitor, single point]"
16,CC(NC(=O)c1ccc(OC2CCN(Cc3ccccn3)CC2)cc1)c1ccccc1 (stereo unspecified),inactive
17,CC1=C(C(=O)Nc2ccc([N+](=O)[O-])cc2)C(c2cccc(C(F)(F)F)c2)NC(=S)N1c1ccccc1 (stereo unspecified),"inconclusive: 22.4 µM [inhibitor, single point]"
18,Cc1c(Cl)cccc1NC(=S)NCc1cccn1C,active: 4.47 µM
19,O=c1c2c(-c3cccs3)csc2[nH]c(=S)n1-c1ccccc1,active: 2.24 µM
20,O=C(NC1CCCC1)C1CCC(CNS(=O)(=O)c2cccs2)CC1 (stereo unspecified),inactive
21,COc1ccc(N2C(=O)CC(Sc3ccccc3C(=O)O)C2=O)c([N+](=O)[O-])c1 (stereo unspecified),"inconclusive: 35.5 µM [inhibitor, single point]"
22,CCCOc1cccc(-c2cc(C(=O)N/N=C/c3ccccn3)c3ccccc3n2)c1,active: 1 µM
23,N#Cc1cccc(NC(=O)N2CC[C@@]3(CCCN(C(=O)c4csnn4)C3)C2)c1,inactive

# Individual results from above:
# Cc1c(Cl)cccc1NC(=S)NCc1cccn1C – Potency: active: 4.47 µM
# Fc1ccc2c(Cl)c(-c3nnc(-c4cccs4)o3)sc2c1 – Potency: inconclusive: 12.6 µM [activator, partial curve]

# Next compounds:

row,SMILES,Potency
1,O=C(COc1ccc(Cl)cc1)Nc1ncc([N+](=O)[O-])s1,"inconclusive: 0.355 µM [activator, partial curve, poor fit]"
2,COc1ccc(CN(C(=S)Nc2ccccc2)C2CC(=O)N(c3ccccc3)C2=O)cc1 (stereo unspecified),"inconclusive: 15.8 µM [activator, single point]"
3,CC(=O)c1c(C)[nH]c(C(=O)NCc2cccs2)c1C,"inconclusive: 28.2 µM [inhibitor, single point]"
4,CCSc1nnc(NC(=O)c2ccccn2)s1,active: 2 µM
5,CCSc1nc2ccccc2n1C(=O)/C=C\c1ccc(OC)c(OC)c1,active: 10 µM
6,CC(C)C(=O)N1CCN(c2nc3ccc(Cl)cc3s2)CC1,"inconclusive: 7.08 µM [activator, partial curve]"
7,O=C(Nc1ccccc1)Nc1nnc(/C=C/c2ccccc2Cl)s1,"inconclusive: 3.16 µM [activator, full curve]"
8,Cc1ccc(NC(=O)COC(=O)/C=C/c2cccc(Cl)c2)cc1S(=O)(=O)N1CCOCC1,"inconclusive: 12.6 µM [activator, partial curve]"
9,Oc1ccc(-c2csc(Nc3ncccn3)n2)cc1O,"inconclusive: 7.94 µM [inhibitor, partial curve]"
10,Cc1noc(C(F)(F)F)c1C(=O)NNC(=O)c1ccccc1,"inconclusive: 14.1 µM [inhibitor, single point]"
11,O=C(NC(=S)Nc1ccc(Cl)cn1)c1cccs1,"inconclusive: 4.47 µM [inhibitor, full curve, poor fit]"
12,O=C(Cc1ccc(F)cc1)NCC1CCCO1 (stereo unspecified),active: 11.2 µM
13,COc1cc(SC)ccc1C(=O)NCCOc1ccc(Cl)cc1,"inconclusive: 35.5 µM [activator, single point]"
14,O=C(COC(=O)c1cc(S(=O)(=O)N2CCOCC2)ccc1O)Nc1cc(S(=O)(=O)N2CCCC2)ccc1Cl,inactive
15,CCCSc1nnc(CSc2nc3nc(C)cc(C)n3n2)o1,"inconclusive: 22.4 µM [activator, single point]"
16,CCOC(=O)c1c(C)nc2cc(C)cc(C)n12,"inconclusive: 15.8 µM [inhibitor, partial curve]"
17,COC(=O)C1C2C=CC(C3CC23)C1C(=O)OCC(=O)c1ccc(OC)cc1 (stereo unspecified),"inconclusive: 35.5 µM [activator, single point]"
18,CCOc1ccc(S(=O)(=O)N(C)c2ccc(OCC(=O)Nc3nc4ccccc4s3)cc2)cc1,"inconclusive: 10 µM [activator, partial curve, poor fit]"
19,Cc1oc(C(C)(C)C)cc1C(=O)NCc1ccc2c(c1)OCO2,"inconclusive: 4.47 µM [activator, partial curve]"
20,CC1CCCCN1CCNC(=O)c1cc2c(=O)n(C)c3ccccc3c2n1C (stereo unspecified),"inconclusive: 12.6 µM [inhibitor, partial curve, poor fit]"
21,O=C(O)CC(NC(=O)c1sc2ccccc2c1Cl)c1ccc(OC2CCCC2)cc1 (stereo unspecified),"inconclusive: 17.8 µM [activator, single point]"
22,COCCCNS(=O)(=O)c1ccc(Cl)c(C(F)(F)F)c1,"inconclusive: 6.31 µM [inhibitor, single point]"
23,COc1ccc(Nc2nc(N)nc(CSC(=S)N3CCCCC3C)n2)cc1 (stereo unspecified),active: 12.6 µM
